Measurements reported in patent publication US11166941B2, “Synergistic nutritional compositions for enhancing ATP efficiency” (CELAGENEX RESEARCH (INDIA) PVT. LTD., priority 2020, dated 2021).

Tested on: HepG2 cells
Test: Estimation of cellular respiration by measuring cellular ATP levels (kit method) in HepG2 cells
Format: cell-based, Human
Details: HepG2, 2 hours treatment, 500 μg/ml
Protocol: The test substances were evaluated for their in vitro effect on cellular energy by measuring cellular ATP levels in human Hepatocytes (HepG2) cell line. In the given experimental conditions, treatment with the test substances improved cellular ATP levels in vitro [J Immunol Methods; 1986; 89: 271-277]; [Proc Nal Acad Sci USA; 2009; 106: 15651-15656].
For test substance ABC, the test substances were combined in the weight ratio of 1:0.05:0.01. A weight of about 10 mg of ABC was dissolved in 100 μl of DMSO and the volume was made up to 1 ml with DMEM-HG (Dulbecco's Modified Eagle Medium High Glucose). For individual test substances A, B and C, about 10 mg of all the test substances were weighed and separately dissolved with 100 μl of DMSO and volume was made up with DMEM-HG supplemented with 2% inactivated FBS to obtain a stock solution of 1 mg/ml concentration. The samples were further sterilized by 0.22 syringe filtration. […]
HepG2 cells were trypsinized from stock culture flasks and the cell count was adjusted to 1.0×10^5 cells/ml to obtain a cell suspension that was seeded into a 6-well plate. […] At the end of the experiment, the optical density was read at 570 nm using microplate reader. From the absorbance values, the cellular ATP levels were estimated using kit protocol and the concentration of cellular ATP in treated groups were determined in comparison to the control groups.

In the case of “manganese (II) sulphate monohydrate [Manganese-Sulphate (C)]”, the “OD values (treated) @ 570 nm” value is reported as 0.103.
